Where a name gives a salt, the structure may show the parent alone. This is one part of the list. The calls rarely recur for the same compound in another form.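 Kinases, fused to nanoluciferase, were expressed in K562 cells; luminescence was measured every 4 h from 2 to 18 h as percent of control (DMSO = 100%, positive control = 0%). A time point is decreased if signal falls significantly (2 sigma). Hits were called by the authors by a rule that is not shown; the count of time points alone does not decide it.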
Experiments:
Assay in all cases: number of time points (of 5) at which kinase-Nluc abundance scored as decreased, DMSO-normalised (count); higher = more persistent destabilization
Conditions in all cases: K562; 2-18 h
ALK = ALK (UniProt Q9UM73)
ARAF = ARAF (UniProt P10398)
AURKA = AURKA (UniProt O14965)
AURKB = AURKB (UniProt Q96GD4)
AURKC = AURKC (UniProt Q9UQB9)
BLK = BLK (UniProt P51451)
BMX = BMX (UniProt P51813)
BRAF = BRAF (UniProt P15056)
BRAF_V600E = tested on: BRAF_V600E
BTK = BTK (UniProt Q06187)

Protein sequences, listed by entry. Tags and fused reporters are not part of them. Lines headed by an entry give the natural chain unless they say otherwise; changes in a name come on top.
UniProt Q9UM73: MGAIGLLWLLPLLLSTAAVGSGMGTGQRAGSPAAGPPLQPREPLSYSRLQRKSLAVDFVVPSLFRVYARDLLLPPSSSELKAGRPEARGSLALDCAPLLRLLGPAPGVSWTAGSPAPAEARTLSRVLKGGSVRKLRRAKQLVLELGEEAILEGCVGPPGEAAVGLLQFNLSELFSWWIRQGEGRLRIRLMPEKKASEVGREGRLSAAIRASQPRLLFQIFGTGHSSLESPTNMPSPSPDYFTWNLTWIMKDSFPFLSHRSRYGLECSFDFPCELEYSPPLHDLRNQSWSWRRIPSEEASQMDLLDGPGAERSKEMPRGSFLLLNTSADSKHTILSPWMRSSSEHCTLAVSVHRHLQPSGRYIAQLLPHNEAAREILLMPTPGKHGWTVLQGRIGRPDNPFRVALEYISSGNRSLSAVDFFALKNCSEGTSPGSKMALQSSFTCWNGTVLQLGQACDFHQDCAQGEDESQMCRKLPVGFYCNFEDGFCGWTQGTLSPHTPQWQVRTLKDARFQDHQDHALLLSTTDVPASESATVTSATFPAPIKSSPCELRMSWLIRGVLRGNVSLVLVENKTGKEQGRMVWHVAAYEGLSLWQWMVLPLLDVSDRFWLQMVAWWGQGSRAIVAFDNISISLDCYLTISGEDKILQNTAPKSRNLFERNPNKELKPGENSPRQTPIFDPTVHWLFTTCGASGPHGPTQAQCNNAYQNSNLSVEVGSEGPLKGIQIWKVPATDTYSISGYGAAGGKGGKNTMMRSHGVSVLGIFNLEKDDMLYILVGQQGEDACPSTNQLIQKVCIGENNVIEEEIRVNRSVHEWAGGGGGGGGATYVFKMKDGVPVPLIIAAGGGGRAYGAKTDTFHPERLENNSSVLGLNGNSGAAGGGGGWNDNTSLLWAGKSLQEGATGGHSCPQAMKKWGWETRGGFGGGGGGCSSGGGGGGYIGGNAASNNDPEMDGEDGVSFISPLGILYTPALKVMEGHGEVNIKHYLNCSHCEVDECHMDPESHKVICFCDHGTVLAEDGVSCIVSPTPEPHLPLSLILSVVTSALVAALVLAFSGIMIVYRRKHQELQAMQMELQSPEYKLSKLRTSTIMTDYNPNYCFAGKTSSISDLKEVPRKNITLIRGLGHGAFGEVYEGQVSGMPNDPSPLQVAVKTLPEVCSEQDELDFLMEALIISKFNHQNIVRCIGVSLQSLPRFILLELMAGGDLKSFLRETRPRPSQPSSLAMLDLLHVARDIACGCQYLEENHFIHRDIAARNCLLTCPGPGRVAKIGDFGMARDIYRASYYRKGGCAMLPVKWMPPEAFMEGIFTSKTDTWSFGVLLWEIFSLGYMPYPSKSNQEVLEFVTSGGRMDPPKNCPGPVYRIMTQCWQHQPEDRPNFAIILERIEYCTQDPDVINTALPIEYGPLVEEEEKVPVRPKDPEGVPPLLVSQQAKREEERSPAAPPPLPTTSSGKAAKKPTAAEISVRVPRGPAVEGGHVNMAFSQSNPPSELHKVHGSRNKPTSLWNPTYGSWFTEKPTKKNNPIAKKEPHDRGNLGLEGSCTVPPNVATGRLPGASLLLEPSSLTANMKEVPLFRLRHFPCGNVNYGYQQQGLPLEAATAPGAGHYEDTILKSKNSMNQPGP
UniProt P10398: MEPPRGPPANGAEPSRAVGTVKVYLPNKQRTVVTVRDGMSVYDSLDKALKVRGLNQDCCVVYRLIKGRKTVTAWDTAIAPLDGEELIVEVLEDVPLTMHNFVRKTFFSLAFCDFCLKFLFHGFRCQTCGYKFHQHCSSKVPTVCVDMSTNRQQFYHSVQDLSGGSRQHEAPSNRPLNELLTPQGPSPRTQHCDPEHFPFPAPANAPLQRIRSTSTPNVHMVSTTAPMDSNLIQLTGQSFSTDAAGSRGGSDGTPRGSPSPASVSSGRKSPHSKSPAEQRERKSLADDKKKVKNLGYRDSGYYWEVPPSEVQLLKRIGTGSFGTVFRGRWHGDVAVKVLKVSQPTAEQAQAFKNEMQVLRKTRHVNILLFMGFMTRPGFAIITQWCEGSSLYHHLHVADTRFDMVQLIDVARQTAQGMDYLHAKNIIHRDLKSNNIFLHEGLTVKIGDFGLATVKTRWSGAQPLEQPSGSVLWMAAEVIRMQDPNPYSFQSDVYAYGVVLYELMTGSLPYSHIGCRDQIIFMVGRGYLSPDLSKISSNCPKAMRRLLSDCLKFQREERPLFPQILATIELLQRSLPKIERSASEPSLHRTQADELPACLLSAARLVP
UniProt O14965: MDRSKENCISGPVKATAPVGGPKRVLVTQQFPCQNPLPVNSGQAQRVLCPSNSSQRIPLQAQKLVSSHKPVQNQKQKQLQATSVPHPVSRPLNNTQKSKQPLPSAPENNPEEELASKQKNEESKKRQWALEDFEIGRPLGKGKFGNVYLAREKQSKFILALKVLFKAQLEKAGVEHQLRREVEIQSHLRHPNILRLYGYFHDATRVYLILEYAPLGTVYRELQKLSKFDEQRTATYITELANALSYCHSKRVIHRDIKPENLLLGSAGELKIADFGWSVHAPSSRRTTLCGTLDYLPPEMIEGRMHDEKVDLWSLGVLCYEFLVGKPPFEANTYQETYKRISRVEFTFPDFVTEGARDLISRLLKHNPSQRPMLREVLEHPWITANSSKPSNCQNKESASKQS
UniProt Q96GD4, whole entry: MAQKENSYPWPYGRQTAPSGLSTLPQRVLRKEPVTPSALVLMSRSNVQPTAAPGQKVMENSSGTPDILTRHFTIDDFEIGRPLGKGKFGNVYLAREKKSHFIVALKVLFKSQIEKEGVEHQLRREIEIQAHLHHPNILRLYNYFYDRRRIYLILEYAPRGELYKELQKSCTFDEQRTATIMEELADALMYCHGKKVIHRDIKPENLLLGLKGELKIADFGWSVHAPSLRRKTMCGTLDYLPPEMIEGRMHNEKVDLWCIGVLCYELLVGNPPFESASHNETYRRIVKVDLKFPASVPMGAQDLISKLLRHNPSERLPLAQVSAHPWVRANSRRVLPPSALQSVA
UniProt Q9UQB9: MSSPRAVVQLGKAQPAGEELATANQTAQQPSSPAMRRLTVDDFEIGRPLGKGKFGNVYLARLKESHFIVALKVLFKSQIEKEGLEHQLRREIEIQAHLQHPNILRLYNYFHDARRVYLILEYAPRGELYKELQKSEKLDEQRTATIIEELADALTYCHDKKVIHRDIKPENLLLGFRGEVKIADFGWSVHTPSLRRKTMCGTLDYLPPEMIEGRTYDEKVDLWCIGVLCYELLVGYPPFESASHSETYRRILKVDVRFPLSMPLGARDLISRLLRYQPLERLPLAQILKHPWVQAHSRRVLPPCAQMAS
UniProt P51451: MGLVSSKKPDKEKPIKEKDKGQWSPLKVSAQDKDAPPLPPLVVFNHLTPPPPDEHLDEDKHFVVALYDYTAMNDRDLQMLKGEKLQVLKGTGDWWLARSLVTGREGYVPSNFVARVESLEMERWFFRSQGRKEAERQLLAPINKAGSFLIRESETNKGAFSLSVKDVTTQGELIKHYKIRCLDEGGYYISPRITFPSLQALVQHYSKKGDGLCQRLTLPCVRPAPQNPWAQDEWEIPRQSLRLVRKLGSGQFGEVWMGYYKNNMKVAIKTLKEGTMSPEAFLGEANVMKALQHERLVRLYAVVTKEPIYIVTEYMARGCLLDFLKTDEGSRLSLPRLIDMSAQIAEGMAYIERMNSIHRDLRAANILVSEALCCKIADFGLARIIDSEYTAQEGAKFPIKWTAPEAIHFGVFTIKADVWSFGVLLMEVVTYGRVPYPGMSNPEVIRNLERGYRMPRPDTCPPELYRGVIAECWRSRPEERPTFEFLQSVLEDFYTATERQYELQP
UniProt P51813: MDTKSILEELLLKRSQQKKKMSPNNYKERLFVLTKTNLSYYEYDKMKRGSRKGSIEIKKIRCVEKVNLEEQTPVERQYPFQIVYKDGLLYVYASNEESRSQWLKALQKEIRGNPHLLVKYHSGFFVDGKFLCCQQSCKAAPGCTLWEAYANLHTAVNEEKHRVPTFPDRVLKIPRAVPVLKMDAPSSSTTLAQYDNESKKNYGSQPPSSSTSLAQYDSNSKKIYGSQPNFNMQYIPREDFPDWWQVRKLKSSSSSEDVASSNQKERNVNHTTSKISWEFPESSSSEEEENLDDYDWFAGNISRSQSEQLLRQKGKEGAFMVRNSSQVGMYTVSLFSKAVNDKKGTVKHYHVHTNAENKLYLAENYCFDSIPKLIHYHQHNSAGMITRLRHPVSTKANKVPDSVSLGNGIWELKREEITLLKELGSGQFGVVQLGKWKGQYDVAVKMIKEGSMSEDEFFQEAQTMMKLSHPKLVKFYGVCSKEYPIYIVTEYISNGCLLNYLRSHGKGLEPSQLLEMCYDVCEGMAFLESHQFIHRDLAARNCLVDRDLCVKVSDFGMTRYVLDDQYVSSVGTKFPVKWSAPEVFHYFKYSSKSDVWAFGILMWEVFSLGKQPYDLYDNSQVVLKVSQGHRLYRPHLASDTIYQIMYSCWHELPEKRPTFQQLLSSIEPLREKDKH
UniProt P15056, whole entry, looked up: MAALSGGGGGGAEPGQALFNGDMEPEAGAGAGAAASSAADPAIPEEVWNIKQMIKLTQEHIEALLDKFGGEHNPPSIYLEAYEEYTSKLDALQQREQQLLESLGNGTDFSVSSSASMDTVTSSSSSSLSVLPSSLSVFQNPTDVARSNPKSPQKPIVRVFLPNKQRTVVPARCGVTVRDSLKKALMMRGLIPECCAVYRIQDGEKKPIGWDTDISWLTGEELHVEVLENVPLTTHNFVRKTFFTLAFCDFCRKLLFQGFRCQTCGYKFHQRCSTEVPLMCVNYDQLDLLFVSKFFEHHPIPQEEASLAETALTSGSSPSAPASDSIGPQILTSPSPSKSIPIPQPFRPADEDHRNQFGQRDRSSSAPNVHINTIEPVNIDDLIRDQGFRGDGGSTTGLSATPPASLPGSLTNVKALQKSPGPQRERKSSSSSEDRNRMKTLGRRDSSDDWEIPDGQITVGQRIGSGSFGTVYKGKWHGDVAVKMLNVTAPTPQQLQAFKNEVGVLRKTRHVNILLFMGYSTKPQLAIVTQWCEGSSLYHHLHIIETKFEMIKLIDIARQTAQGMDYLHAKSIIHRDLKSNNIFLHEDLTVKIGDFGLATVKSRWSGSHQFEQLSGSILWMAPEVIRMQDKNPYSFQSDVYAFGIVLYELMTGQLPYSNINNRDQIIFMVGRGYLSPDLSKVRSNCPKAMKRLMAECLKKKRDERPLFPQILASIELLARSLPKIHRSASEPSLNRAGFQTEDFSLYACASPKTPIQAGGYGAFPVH
UniProt Q06187: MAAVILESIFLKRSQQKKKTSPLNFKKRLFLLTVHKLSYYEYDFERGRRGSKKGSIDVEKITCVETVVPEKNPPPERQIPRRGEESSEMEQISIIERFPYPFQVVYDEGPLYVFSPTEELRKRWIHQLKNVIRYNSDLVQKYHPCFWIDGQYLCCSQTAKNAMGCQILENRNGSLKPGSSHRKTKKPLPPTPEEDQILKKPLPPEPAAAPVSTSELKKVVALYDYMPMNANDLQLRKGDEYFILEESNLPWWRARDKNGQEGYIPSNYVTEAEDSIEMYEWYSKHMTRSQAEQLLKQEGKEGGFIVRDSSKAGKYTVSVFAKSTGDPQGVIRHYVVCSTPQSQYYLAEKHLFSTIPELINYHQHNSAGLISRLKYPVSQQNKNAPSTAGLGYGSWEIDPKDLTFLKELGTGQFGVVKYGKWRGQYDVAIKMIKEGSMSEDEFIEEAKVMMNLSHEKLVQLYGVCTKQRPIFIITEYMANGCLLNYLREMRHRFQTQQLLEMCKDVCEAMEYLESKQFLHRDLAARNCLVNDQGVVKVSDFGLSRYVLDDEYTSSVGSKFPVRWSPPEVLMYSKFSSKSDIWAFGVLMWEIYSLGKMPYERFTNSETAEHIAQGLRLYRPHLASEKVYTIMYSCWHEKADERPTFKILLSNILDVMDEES

SMILES | number of time points (ALK) | number of time points (ARAF) | number of time points (AURKA) | number of time points (AURKB) | number of time points (AURKC) | number of time points (BLK) | number of time points (BMX) | number of time points (BRAF) | number of time points (BRAF_V600E) | number of time points (BTK)
C=CC(=O)Nc1cccc(-n2c(=O)cc(C)c3cnc(Nc4ccc(OCCN(C)C)cc4OC)nc32)c1 (10 µM) | 0 | 0 | 0 | 0 | 0 | 0 | 0 | 0 | 0 | 0
Cn1ncc(Cl)c1-c1cc(C(=O)N[C@H](CN)Cc2ccc(F)c(F)c2)sc1Cl (10 µM) | 0 | 0 | 3 | 1 | 0 | 0 | 0 | 0 | 1 | 0
CN(C)Cc1cccc(N=C(c2ccccc2)c2c(O)[nH]c3cc(C(=O)N(C)C)ccc23)c1 (10 µM) | 0 | 0 | 0 | 0 | 0 | 0 | 0 | 0 | 0 | 0
CC(C)n1cnc2c(Nc3cccc(Cl)c3)nc(NCCO)nc21 (10 µM) | 0 | 0 | 0 | 0 | 0 | 0 | 0 | 0 | 0 | 0
CC1=C(C(=O)Nc2ccc3[nH]ncc3c2)C(c2ccc(F)cc2)NC(=O)N1 (stereo not given) (10 µM) | 0 | 0 | 0 | 0 | 0 | 0 | 0 | 0 | 0 | 0
CN(CC(=O)N(Cc1ccc(C2CCCCC2)cc1)c1ccc(C(=O)O)c(O)c1)S(=O)(=O)c1c(F)c(F)c(F)c(F)c1F (2.5 µM) | 0 | 0 | 0 | 0 | 0 | 5 | 0 | 0 | 0 | 0
O=C(CO)N1CCC(c2n[nH]c(-c3ccc(Cl)cc3)c2-c2ccncn2)CC1 (10 µM) | 0 | 0 | 0 | 0 | 0 | 0 | 0 | 0 | 0 | 0
CC(C)Oc1ccc(-c2cnc3c(-c4ccnc5ccccc45)cnn3c2)cc1 (10 µM) | 0 | 0 | 0 | 0 | 0 | 0 | 0 | 0 | 0 | 0
Nc1n[nH]c2cc(-c3ccc(=O)n(Cc4cccc(Cl)c4)c3)ccc12 (10 µM) | 2 | 0 | 0 | 0 | 0 | 0 | 0 | 0 | 0 | 0
CCc1ccc(C(=O)COc2ccc(CC3SC(=O)NC3=O)cc2)nc1 (stereo not given) (10 µM) | 0 | 0 | 0 | 0 | 0 | 0 | 0 | 0 | 0 | 0
COc1ccc(CN2C3CC2CN(c2ccc(-c4cc(OCC(C)(C)O)cn5ncc(C#N)c45)cn2)C3)cn1 [Selpercatinib] (10 µM) | 0 | 0 | 0 | 0 | 0 | 0 | 0 | 0 | 0 | 0
CC(C)C[C@H](NC(=O)[C@H](CCCCN)NC(=O)[C@H](CO)NC(=O)[C@@H](N)CC(C)C)C(N)=O [LSKL, Inhibitor of Thrombospondin (TSP-1) (TFA)] (10 µM) | 0 | 0 | 0 | 0 | 0 | 0 | 0 | 0 | 0 | 0
O=c1cc(-c2ccc(O)c(O)c2O)oc2ccccc12 (10 µM) | 0 | 0 | 0 | 0 | 0 | 0 | 0 | 0 | 0 | 0
OCCN(CCO)c1ccc(C(c2ccc(Cl)cc2)c2ccc(N(CCO)CCO)cc2)cc1 (10 µM) | 2 | 0 | 0 | 1 | 0 | 0 | 3 | 0 | 1 | 0
N#Cc1ccc(-c2c(-c3ncn[nH]3)sc(N3CCOCC3)c2C#N)c(F)c1 (10 µM) | 0 | 0 | 3 | 0 | 0 | 0 | 0 | 0 | 2 | 0
O=C(O)c1cc(O)c2c(c1)[C@@H]([C@H]1c3cc(C(=O)O)cc(O)c3C(=O)c3c(O[C@@H]4O[C@H](CO)[C@@H](O)[C@H](O)[C@H]4O)cccc31)c1cccc(O[C@@H]3O[C@H](CO)[C@@H](O)[C@H](O)[C@H]3O)c1C2=O [Sennoside B] (2.5 µM) | 0 | 0 | 0 | 0 | 0 | 0 | 0 | 0 | 0 | 0
Oc1ccccc1C(=S)N1CCCC1 (10 µM) | 0 | 0 | 0 | 0 | 0 | 0 | 0 | 0 | 0 | 0
Cc1cc(Nc2cc(CN3CCOCC3)c3nc(C)c(Cc4ccc(Cl)cc4F)n3n2)n[nH]1 [Gandotinib] (2.5 µM) | 0 | 0 | 0 | 0 | 0 | 0 | 0 | 0 | 0 | 0
O=C(O)c1ccccc1Nc1cccc(C(F)(F)F)c1 [Flufenamic acid] (10 µM) | 0 | 0 | 0 | 0 | 0 | 0 | 0 | 0 | 0 | 0
CC(=O)NCCc1c[nH]c2ccc(O)cc12 [N-Acetyl-5-hydroxytryptamine] (10 µM) | 0 | 0 | 0 | 0 | 0 | 0 | 0 | 0 | 0 | 0
COC(=O)N[C@@H](C)CNc1nccc(-c2cn(C(C)C)nc2-c2cc(Cl)cc(NS(C)(=O)=O)c2F)n1 [Encorafenib] (10 µM) | 0 | 0 | 0 | 0 | 0 | 0 | 0 | 0 | 0 | 0
N#C/C(=C(/N)Sc1ccc(N)cc1)c1ccccc1C(F)(F)F (10 µM) | 0 | 0 | 0 | 0 | 0 | 0 | 0 | 0 | 0 | 0
C=CS(=O)(=O)c1ccc(Nc2nc(OCC3CCCCC3)c3[nH]cnc3n2)cc1 (2.5 µM) | 0 | 0 | 0 | 0 | 0 | 0 | 0 | 0 | 0 | 0
COc1ccc(-n2c(C)c([N+](=O)[O-])c3ccc(O)cc32)cc1 (10 µM) | 0 | 0 | 0 | 0 | 0 | 0 | 0 | 0 | 0 | 0
CC(C)(C)Cn1c(N)nc2ccc(-c3[nH]c(C(C)(C)C)nc3-c3ccc(F)cc3)nc21 [Ralimetinib dimesylate] (2.5 µM) | 0 | 0 | 0 | 0 | 0 | 0 | 0 | 0 | 0 | 0

SMILES | number of time points (ALK) | number of time points (ARAF) | number of time points (AURKA) | number of time points (AURKB) | number of time points (AURKC) | number of time points (BLK) | number of time points (BMX) | number of time points (BRAF) | number of time points (BRAF_V600E) | number of time points (BTK)
C[C@@H]1COCCN1c1cc(=O)n2c(n1)N(Cc1cncc(Cl)c1)[C@H](C(F)(F)F)CC2 (10 µM) | 0 | 0 | 0 | 0 | 0 | 1 | 0 | 0 | 2 | 0
O=C1NC(=O)C(=Cc2ccc3c(c2)OCO3)S1 (10 µM) | 0 | 0 | 0 | 0 | 0 | 0 | 0 | 0 | 0 | 0
COc1nc(-c2cccc3c2OCCO3)ccc1Nc1ccc(CN(C)C)cc1 [RAS inhibitor Abd-7] (10 µM) | 0 | 0 | 0 | 0 | 0 | 0 | 0 | 0 | 0 | 0
c1cc(-c2cnn3cc(-c4ccc(N5CCNCC5)cc4)cnc23)c2cccnc2c1 (2.5 µM) | 1 | 0 | 0 | 0 | 0 | 0 | 2 | 0 | 0 | 0
CCCC(=O)Nc1nc2c(ncn2[C@@H]2O[C@@H]3COP(=O)(O)O[C@H]3[C@H]2OC(=O)CCC)c(=O)[nH]1 [Dibutyryl-cGMP (sodium)] (10 µM) | 0 | 0 | 0 | 0 | 0 | 0 | 0 | 0 | 0 | 0
CN(C)c1nc2c(Br)c(Br)c(Br)c(Br)c2n1CC(=O)O (10 µM) | 0 | 0 | 0 | 0 | 0 | 0 | 0 | 0 | 0 | 0
O=c1ccc2ccc(O)c(O)c2o1 [Daphnetin] (10 µM) | 0 | 0 | 0 | 0 | 0 | 0 | 0 | 0 | 0 | 0
COc1cc(N2CCC(O)CC2)ccc1Nc1cc(Nc2ccccc2S(=O)(=O)C(C)C)c2cc[nH]c2n1 (10 µM) | 0 | 0 | 0 | 0 | 0 | 0 | 0 | 0 | 0 | 0
Nc1cc(C(F)F)c(-c2nc(N3C4CCC3COC4)nc(N3C4CCC3COC4)n2)cn1 (2.5 µM) | 0 | 0 | 0 | 0 | 0 | 0 | 4 | 3 | 0 | 0
CSc1ccc(CN2CCCC(Nc3ccc4[nH]ncc4c3)C2)cc1 (stereo not given) [Rho-Kinase-IN-1] (10 µM) | 0 | 0 | 0 | 0 | 0 | 0 | 0 | 0 | 0 | 0
Fc1c(Br)cccc1Nc1ncnc2cc3c(cc12)OCCO3 (2.5 µM) | 0 | 0 | 0 | 0 | 0 | 0 | 2 | 0 | 0 | 0
O=C(O)c1ccc(N2N=C(Cc3ccccc3)C(=Cc3ccc(-c4ccccc4F)o3)C2=O)cc1 (10 µM) | 0 | 0 | 0 | 0 | 0 | 0 | 0 | 0 | 0 | 0
COc1ccccc1/C=C1\C(=O)Nc2ccccc21 (10 µM) | 0 | 0 | 0 | 0 | 0 | 0 | 0 | 0 | 0 | 0
O=C1NCCCc2c1oc1ccc(O)cc21 (10 µM) | 0 | 0 | 0 | 0 | 0 | 0 | 0 | 0 | 0 | 0
C=CC(=O)Nc1cccc(Oc2nc(Nc3ccc(N4CCN(C)CC4)cc3)nc3ccoc23)c1 [Poseltinib] (10 µM) | 0 | 0 | 0 | 0 | 0 | 0 | 0 | 0 | 0 | 0
c1ccc(-c2oc3ncnc(NC[C@@H]4CCCO4)c3c2-c2ccccc2)cc1 (2.5 µM) | 0 | 0 | 0 | 0 | 0 | 0 | 0 | 0 | 0 | 0
CCCCOc1ccc(CC/C=C2\SC(=O)N(CCN)C2=O)cc1 [K145 (hydrochloride)] (2.5 µM) | 0 | 0 | 0 | 0 | 0 | 0 | 0 | 0 | 0 | 0
COc1ccc(CNc2nc(N(CCO)CCO)nc3c2ncn3C(C)C)cc1 (2.5 µM) | 0 | 0 | 0 | 0 | 0 | 0 | 0 | 0 | 0 | 0
CC(C)(C)C(=O)N1N=CC[C@H]1c1ccccc1 (10 µM) | 0 | 0 | 0 | 0 | 0 | 0 | 0 | 0 | 0 | 0
CN1C(=O)NC(Cc2c[nH]c3c(Cl)cccc23)C1=O (racemic) [Necrostatin 2 (racemate)] (10 µM) | 0 | 0 | 0 | 0 | 0 | 0 | 0 | 0 | 0 | 0
CNC(=O)c1cc(Oc2ccc3nc(N[C@@H]4CCCC[C@H]4O)sc3c2)ccn1 (10 µM) | 0 | 0 | 0 | 0 | 0 | 0 | 0 | 0 | 0 | 0
COc1c(O)cc2oc3cc(O)c(CC=C(C)C)c(O)c3c(=O)c2c1CCC(C)(C)O [Garcinone D] (2.5 µM) | 0 | 0 | 0 | 0 | 0 | 0 | 0 | 0 | 0 | 0
Cc1cc(Nc2nc(N[C@@H](C)c3ncc(F)cn3)ncc2Cl)[nH]n1 (10 µM) | 0 | 0 | 0 | 0 | 0 | 0 | 0 | 0 | 0 | 0
O=C1NC(=O)/C(=C/c2ccc(-c3ccc(F)cc3O)o2)S1 (10 µM) | 0 | 0 | 0 | 0 | 0 | 0 | 0 | 0 | 0 | 0

Exported comma-delimited: 2 of the compounds above
SMILES,number of time points (ALK),number of time points (ARAF),number of time points (AURKA),number of time points (AURKB),number of time points (AURKC),number of time points (BLK),number of time points (BMX),number of time points (BRAF),number of time points (BRAF_V600E),number of time points (BTK)
O=C1NC(=O)C(=Cc2ccc3c(c2)OCO3)S1 (10 µM),0,0,0,0,0,0,0,0,0,0
c1ccc(-c2oc3ncnc(NC[C@@H]4CCCO4)c3c2-c2ccccc2)cc1 (2.5 µM),0,0,0,0,0,0,0,0,0,0

Reference: the supplement of paper PMC12823440, “Inhibitors supercharge kinase turnover through native proteolytic circuits” (Nature, 2025)
